Measured values reported in PMC11497042.
These are yes or no findings as the source states them, for the method shown. Binding seen in cells or lysates may run through a third protein. Some entries that bind do so weakly or less than the wild type. Sequences can lack the tags named with a protein.

By UniProt entry, the sequences of proteins in these tests, tags left out. Residues count along the entry.
UniProt Q8K2C6, residues 37-310: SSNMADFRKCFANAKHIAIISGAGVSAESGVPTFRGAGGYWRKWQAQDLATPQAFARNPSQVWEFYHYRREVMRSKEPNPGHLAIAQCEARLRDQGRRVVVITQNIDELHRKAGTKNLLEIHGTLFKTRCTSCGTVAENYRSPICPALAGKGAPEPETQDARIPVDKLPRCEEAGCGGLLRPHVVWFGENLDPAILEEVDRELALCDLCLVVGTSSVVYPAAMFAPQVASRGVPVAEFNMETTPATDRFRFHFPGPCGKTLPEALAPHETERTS

Molecular target: T1, HA-tagged ALDH2 (aldehyde dehydrogenase 2) (UniProt P47738)
T1 sequence: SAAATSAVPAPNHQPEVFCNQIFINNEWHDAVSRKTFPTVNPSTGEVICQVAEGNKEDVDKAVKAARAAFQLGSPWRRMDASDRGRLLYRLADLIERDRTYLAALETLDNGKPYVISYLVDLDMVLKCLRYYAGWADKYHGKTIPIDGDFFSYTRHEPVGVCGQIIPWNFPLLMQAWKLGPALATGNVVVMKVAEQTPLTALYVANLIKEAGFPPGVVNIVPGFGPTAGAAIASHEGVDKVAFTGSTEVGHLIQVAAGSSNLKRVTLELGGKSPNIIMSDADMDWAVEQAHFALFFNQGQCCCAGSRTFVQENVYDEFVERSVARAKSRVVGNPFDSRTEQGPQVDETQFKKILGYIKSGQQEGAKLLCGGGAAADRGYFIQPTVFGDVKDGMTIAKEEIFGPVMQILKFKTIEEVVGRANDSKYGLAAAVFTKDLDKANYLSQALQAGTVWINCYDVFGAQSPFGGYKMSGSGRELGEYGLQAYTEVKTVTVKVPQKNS
Assay: co-IP; Flag-SIRT5 and HA-ALDH2 cotransfected into HEK-293T cells; IP lysis buffer; lysates incubated overnight at 4 °C with protein A+G agarose beads and anti-HA or anti-Flag antibody; immunoblot

binding: binds
Substance: Flag-tagged SIRT5 (Sirtuin 5) (from UniProt Q8K2C6 37-310) (enzyme)
